This is one part of the list. Further columns of the screen follow, without active or inactive calls. The list favours compounds with an active or inconclusive main result. Potencies come from curve fits of mixed quality, noted in brackets.
Experiment: qHTS Assay for Lipid Storage Modulators in Drosophila S3 Cells;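 as to cell number change: cells counted by Cell Tracker Red CMTPX staining in the red channel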
Conditions: BODIPY lipid droplet fluorescence, 18-24 h; for cell number change: measured here: cell count max response, cells fed with added oleic acid
Method in brief: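 Drosophila S3 cells loaded with oleic acid (400 uM, as added) and compounds at several concentrations; lipid droplets imaged by 488-nm laser-scanning cytometry, 500–530 nm intensity and object ratio to cell channel. Percent activity normalized to 20 uM Triacsin C.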

[1] = measured here: lipid fluorescence (Fed channel) AC50, cells fed with added oleic acid
[2] = measured here: cell number channel AC50, cells fed with added oleic acid

Row | SMILES | cell number change | AC50 [1] | AC50 [2]
1 | Cn1nc(-c2ccccc2)nc1-c1ccccc1 | 15.7% | 0.0651 µM [rising, full curve] | 
2 | Nc1cc(Oc2ccc(F)cc2F)cc([N+](=O)[O-])c1 | -26.8% | 29.1 µM [falling, single point] | 
3 | O=c1[nH]ncc2c3ccccc3n(Cc3cccc(Cl)c3)c12 | 48.6% |  | 
4 | O=C(c1c(F)cccc1F)N1CCN(c2cccc(C(F)(F)F)c2)CC1 | -10.3% | 23.1 µM [falling, single point] | 
5 | O=C(CN1CCSCC1)N/N=C/c1ccc(Cl)cc1 | -39.5% |  | 32.6 µM [falling, single point]
6 | COc1ccc(-c2sc3ccc(OC)cc3c2C#Cc2ccccn2)cc1 | -25.8% |  | 0.58 µM [rising, single point]
7 | CC(c1ccco1)N(C(=O)COc1ccc(Cl)cc1Cl)c1ccccn1 (stereo not drawn) |  | 0.231 µM [falling, full curve, poor fit] | 0.0058 µM [falling, full curve, poor fit]
8 | COc1ccc(NC(=O)CNC(=O)c2nn(-c3ccc(OC)cc3OC)c(=O)c3ccccc23)c(OC)c1 | 106% | 29.1 µM [rising, single point] | 25.9 µM [rising, partial curve]
9 | O=C(/C=C/c1ccco1)NC(=S)Nc1ccc(N2CCCC2)cc1 | -76.7% |  | 23.1 µM [falling, single point]
10 | O=c1c2ccccc2nc(SCc2cccc(F)c2)n1-c1cccc(S(=O)(=O)N2CCCC2)c1 | 13.2% | 5.8 µM [rising, single point] | 2.06 µM [rising, partial curve]
11 | COc1cccc2c(SCC(=O)N/N=C/c3ccc(O)cc3O)cc(C)nc12 | -34% | 0.103 µM [falling, partial curve, poor fit] | 
12 | CN1C(=O)C(/C(N)=N/NC(=O)c2ccccc2)C2CC1(C)Oc1ccccc12 (stereo not drawn) | 0.411% | 4.11 µM [falling, single point] | 
13 | C(#Cc1ccccc1)Cn1nnc2ccccc21 | 58.5% | 0.082 µM [rising, full curve] | 0.146 µM [rising, full curve, poor fit]
14 | CCOCCn1c(CN2CCC(C)CC2)nc2c1c(=O)n(C)c(=O)n2C |  | 0.00461 µM [rising, full curve, poor fit] | 
15 | COc1ccc(C(=O)Nc2ccc(Cl)cc2C(=O)N2CCCC(C)C2)cc1 (stereo not drawn) | 81.6% |  | 14.6 µM [rising, partial curve]
16 | O=C(CCCN1C(=O)/C(=C/c2ccccc2Cl)SC1=S)N1CCCC1 | -21.8% | 29.1 µM [falling, single point] | 
17 | CCCSc1oc(-c2ccco2)nc1S(=O)(=O)c1ccccc1 | -20% | 0.651 µM [rising, single point] | 
18 | O=C(CCC(=O)OCC(=O)c1ccc(Br)cc1)Nc1ccc(Br)c2cccnc12 | 42.1% |  | 16.4 µM [rising, partial curve, poor fit]
19 | O=C(O)Cn1cccc1C(=O)c1ccccc1 | 16% | 6.51 µM [rising, single point] | 
20 | CC1CCC/C(=C\Nc2ccc3c(c2)OCO3)C1=O (stereo not drawn) | 22% | 0.366 µM [rising, full curve, poor fit] | 1.84 µM [rising, partial curve, poor fit]
21 | Cc1ccccc1-n1c(C)cc(/C=C2/C(=N)N3C(c4ccccc4)=CSC3=NC2=O)c1C | -6.55% |  | 

Row | SMILES | cell number change | AC50 [1] | AC50 [2]
22 | COc1cc(C(=O)NC(=S)N(CCc2ccccc2)CCc2ccccc2)cc(OC)c1OC | -3.56% | 0.58 µM [rising, single point] | 
23 | CC(C(=O)N1CCCC1)N1CCN(S(=O)(=O)c2ccc(OC(F)(F)F)cc2)CC1 (stereo not drawn) | -16.3% | 3.66 µM [falling, partial curve] | 2.06 µM [falling, partial curve]
24 | O=S(=O)(c1ccc(F)cc1)N(CCO)CC(O)Cn1c2ccccc2c2ccccc21 (stereo not drawn) | -53.1% |  | 29.1 µM [falling, single point]
25 | CC(=O)c1c(C)[nH]c(C(=O)C(C)Sc2nnc(NC3CC3)s2)c1C (stereo not drawn) | -18.2% | 25.9 µM [falling, partial curve, poor fit] | 
26 | COCCNC(=O)C(c1c[nH]c2ccccc12)N(C(=O)c1snc(C(N)=O)c1N)c1cccc(OC)c1 (stereo not drawn) | 1.78% |  | 0.146 µM [falling, partial curve, poor fit]
27 | O=c1c2ccccc2n2c(-c3ccc(F)cc3)nnc2n1Cc1ccccc1 | 3.68% |  | 
28 | C/C(=N\NC(=O)C(O)(c1ccccc1)c1ccccc1)c1ccc(NC(=O)CCCC(=O)O)cc1 |  | 2.91 µM [rising, partial curve] | 
29 | O=[N+]([O-])c1ccccc1OCc1nc(-c2cccs2)no1 | 89.9% | 18.4 µM [rising, single point] | 23.1 µM [rising, single point]
30 | COCCN1CCN(C(=O)c2cc(COc3cncc(Cl)c3)on2)CC1 | -6.23% |  | 
31 | CCc1cccc(C)c1NC(=O)CSc1nc(C)c(C)o1 | -1.02% | 29.1 µM [rising, single point] | 
32 | Cc1nnc(NC(=O)CSc2nc3ccccc3[nH]2)s1 | 76.9% | 23.1 µM [rising, single point] | 20.6 µM [rising, partial curve]
33 | CCOC(=O)C1CCN(C(=O)C2CCCN(S(=O)(=O)c3ccc(OCC)c(Cl)c3)C2)CC1 (stereo not drawn) | -34% |  | 23.1 µM [falling, partial curve]
34 | CN1CCN(C(=O)c2ccc(-c3cccs3)s2)CC1 | 23.1% |  | 
35 | CCCC(=O)Nc1ccc2oc(-c3ccc(OC)c(Br)c3)nc2c1 | -44.9% | 0.116 µM [rising, full curve, poor fit] | 16.4 µM [falling, single point]
36 | COc1ccc(CC(=O)NNC(=O)c2ccc(NC(C)=O)cc2)cc1 | -9.55% |  | 2.91 µM [falling, single point]
37 | Oc1ccc(Cl)cc1CNCc1ccc(Cl)cc1 | -51.6% |  | 16.4 µM [falling, single point]
38 | O=C1CSC(c2cccc([N+](=O)[O-])c2)N1Cc1ccccc1 (stereo not drawn) | 19.6% |  | 
39 | COc1ccc(N(Cc2cc3cc(OC)ccc3[nH]c2=O)C(=O)C2CCCO2)cc1 (stereo not drawn) | 11.1% | 29.1 µM [rising, single point] | 
40 | CCC(CO)NC(=O)c1cc2c(s1)CCC2 (stereo not drawn) | 2.64% | 2.06 µM [falling, partial curve, poor fit] | 
41 | COc1cccc(NS(=O)(=O)c2ccc(S(=O)(=O)N3CCCC3)cc2)c1 | -7.05% | 0.82 µM [falling, single point] | 
42 | CSCC(C)N1CCC(n2nccc2NC(=O)CCCc2ccccc2)CC1 (stereo not drawn) | 96.5% | 18.4 µM [rising, partial curve] | 29.1 µM [rising, single point]

Row | SMILES | cell number change | AC50 [1] | AC50 [2]
43 | CCNC(=O)C(=O)NCC1CCCN1S(=O)(=O)c1cccs1 (stereo not drawn) | 22.9% |  | 
44 | C=CCN(C1CCCCC1)S(=O)(=O)c1ccc2c(c1)oc(=O)n2C | 12.7% | 0.58 µM [rising, full curve, poor fit] | 
45 | COC(=O)C1=C(C)N(Cc2ccccc2)C(=NCc2ccco2)N[C@H]1c1ccc(Br)cc1 | 16% |  | 
46 | COc1cccc(NC(=O)c2nc3nc(C)cc(C(F)F)n3n2)c1 | 49.8% |  | 16.4 µM [rising, partial curve]
47 | OC(COc1ccccc1)CN(Cc1ccccc1)CC(O)COc1ccccc1 (stereo not drawn) | -41.6% | 10.3 µM [falling, partial curve] | 29.1 µM [falling, single point]
48 | COc1cccc(NC(=O)CSc2nnnn2C2CCCCC2)c1 | 11.7% |  | 
49 | Cc1ccc2c(CC(=O)OCn3nnc4ccccc4c3=O)coc2c1 | -1.08% | 0.259 µM [falling, full curve, poor fit] | 
50 | CCN(CC)c1ccc(C(=O)OCC(=O)NCC2CCCO2)cc1 (stereo not drawn) | 17.7% | 0.58 µM [falling, single point] | 
51 | Cc1ccccc1NS(=O)(=O)c1nnc(NC(=O)CC(C)C)s1 | 1.42% |  | 
52 | COc1cc(C(=O)NC(C)CCc2ccccc2)cc(OC)c1OC (stereo not drawn) | 11.7% | 0.58 µM [rising, single point] | 
53 | OC(CNCc1ccccc1)(c1ccccc1)c1ccccc1 | -6.38% | 0.103 µM [rising, full curve, poor fit] | 2.91 µM [rising, single point]
54 | CCOC(=O)N1CCOCCOCCN(C(=O)OCC)CCOCC1 | -1.44% | 0.116 µM [falling, full curve, poor fit] | 
55 | O=C(NCC1CCCO1)C1c2ccccc2C(=O)N1C1CCCCCC1 (stereo not drawn) |  |  | 6.51 µM [falling, single point]
56 | O=C(COC(=O)c1ncc(Cl)c(Cl)c1Cl)NCCc1ccccc1 | -29.2% |  | 
57 | O=C(/C=C/c1c(F)cccc1Cl)N1CCOCC1 | -19.4% | 29.1 µM [rising, single point] | 
58 | N#Cc1ccccc1OCC(=O)OCC(=O)c1c[nH]c2ccccc12 | -8.12% | 1.84 µM [falling, single point] | 
59 | Cc1ccc(S(=O)(=O)N2CCN(C3CC(=O)N(CCc4ccccc4)C3=O)CC2)cc1C (stereo not drawn) | 2.07% | 0.651 µM [falling, single point] | 
60 | Cc1ccc(C(=O)CCC(=O)OCC(=O)NNC(=O)c2ccc([N+](=O)[O-])cc2)cc1 | -24.9% |  | 
61 | O=C(c1cc(C2CC2)nn1-c1ccccc1)N1CCN(c2ncc(C(F)(F)F)cc2Cl)CC1 | 25.5% | 29.1 µM [rising, single point] | 

Entries shown so far that have a COOH group, in the order listed:
Row | SMILES | cell number change | AC50 [1] | AC50 [2]
19 | O=C(O)Cn1cccc1C(=O)c1ccccc1 | 16% | 6.51 µM [rising, single point] | 
28 | C/C(=N\NC(=O)C(O)(c1ccccc1)c1ccccc1)c1ccc(NC(=O)CCCC(=O)O)cc1 |  | 2.91 µM [rising, partial curve] | 

Some entries already given, reduced to cell number change and AC50 [2].
Row,SMILES,cell number change,AC50 [2]
4,O=C(c1c(F)cccc1F)N1CCN(c2cccc(C(F)(F)F)c2)CC1,-10.3%,
51,Cc1ccccc1NS(=O)(=O)c1nnc(NC(=O)CC(C)C)s1,1.42%,
